Experimental data published in patent publication US8426631B2, “Fungicidal compounds, method for the production thereof, and use thereof to combat damaging fungi, and agents comprising the same” (BASF SE, priority 2007, dated 2013).
Some of these results come from one statement about several compounds together.

Assays:
[1] = system: Puccinia recondita; experiment: Greenhouse test, brown rust of wheat caused by Puccinia recondita, protective application; type: in vivo; conditions: 600 ppm; wheat seedlings, protective spray 1 day before inoculation; untreated plants 80 to 90% infected
[2] = system: Puccinia recondita; experiment: Greenhouse test, brown rust of wheat caused by Puccinia recondita, curative application; type: in vivo; conditions: 600 ppm; wheat seedlings, curative spray the day after inoculation; untreated plants 80 to 90% infected
[3] = system: Pyricularia oryzae; type: cell-based; conditions: 125 ppm; growth relative to active compound-free control (100%); 405 nm, day 7 after inoculation
[4] = system: Septoria tritici; experiment: Microtiter test, activity against the Septoria leaf spot pathogen Septoria tritici; type: cell-based; conditions: 125 ppm; growth relative to active compound-free control (100%); 405 nm, day 7 after inoculation
[5] = system: Phakopsora pachyrhizi; experiment: Greenhouse test, curative activity against soybean rust caused by Phakopsora pachyrhizi; type: in vivo; conditions: 600 ppm, soybean seedlings, read after 14 days, untreated 80 to 90% infected
[6] = system: Botrytis cinerea; experiment: Microtiter test, activity against the gray mold pathogen Botrytis cinerea; type: cell-based; conditions: 125 ppm; growth relative to active compound-free control (100%); 405 nm, day 7 after inoculation
[7] = system: Erysiphe [syn. Blumeria] graminis f. sp. tritici; experiment: Greenhouse test, mildew of wheat caused by Erysiphe [syn. Blumeria] graminis f. sp. tritici; type: in vivo; conditions: 600 ppm; wheat seedlings, protective; read after 7 days; untreated 80 to 90% infected
[8] = system: Botrytis cinerea; experiment: Greenhouse test, gray mold on bell pepper leaves caused by Botrytis cinerea, 1 day protective application; type: in vivo; conditions: 600 ppm; bell pepper seedlings, inoculated 1 day after spraying; read after 5 days; untreated 80 to 90% infected

CCN(C)C=Nc1cc(C)c(OCC(COc2cc(Cl)ccc2Cl)=NOC)cc1C [I-128]
infection (rust fungus development on the leaves) [1]: at most 15% | infection of the leaf area [2]: at most 15%

CCN(C)C=Nc1cc(C)c(OCC(COc2cc(Cl)c(Cl)c(Cl)c2)=NOC)cc1C [I-130]
infection (rust fungus development on the leaves) [1]: at most 15% | infection of the leaf area [2]: at most 15%

CCN(C)C=Nc1cc(C)c(OCC(COc2ccc(C)c(Cl)c2)=NOC)cc1C [I-136]
infection (rust fungus development on the leaves) [1]: at most 15% | infection of the leaf area [2]: at most 15%

CCN(C)C=Nc1cc(C)c(OCC(COc2cc(C(F)(F)F)cc(Cl)c2F)=NOC)cc1C [I-125]
infection (rust fungus development on the leaves) [1]: at most 15% | infection of the leaf area [2]: at most 15%

CCN(C)C=Nc1cc(C)c(OCC(COc2ccc(C)nc2)=NOC)cc1C [I-37]
infection (rust fungus development on the leaves) [1]: at most 15% | infection of the leaf area [2]: at most 15%

CCN(C)C=Nc1cc(C)c(OCC(=NOC)C(=O)OC)cc1C [I-6]
infection (rust fungus development on the leaves) [1]: at most 15% | infection of the leaf area [2]: at most 15%

CCN(C)C=Nc1cc(C)c(OCC(COc2ccc(Cl)c(C(=O)c3ccccc3)c2)=NOC)cc1C [I-22]
infection (rust fungus development on the leaves) [1]: at most 15% | infection of the leaf area [2]: at most 15%

CCN(C)C=Nc1cc(C)c(OCC(COc2ccc(C#N)cc2)=NOC)cc1C [I-47]
relative growth of the pathogen [3]: at most 10% | relative growth of the pathogen [4]: at most 10%

CCN(C)C=Nc1cc(C)c(OCC(COc2cccc(Cl)c2)=NOC)cc1C [I-8]
infection (rust fungus development on the leaves) [1]: at most 15% | infection of the leaf area [2]: at most 15% | infection (rust fungus development on the leaves) [5]: at most 15%

CCN(C)C=Nc1cc(C)c(OCC(COc2cccc(C(C)C)c2)=NOC)cc1C [I-29]
relative growth of the pathogen [6]: at most 10% | relative growth of the pathogen [3]: at most 10% | relative growth of the pathogen [4]: at most 10%

CCN(C)C=Nc1cc(C)c(OCC(COc2cncc(Cl)c2)=NOC)cc1C [I-38]
infection (rust fungus development on the leaves) [1]: at most 15% | infection of the leaf area [2]: at most 15%

CCN(C)C=Nc1cc(C)c(OCC(COc2ccc(Cl)c3ccccc23)=NOC)cc1C [I-147]
infection (rust fungus development on the leaves) [1]: at most 15% | infection of the leaf area [2]: at most 15%

CCN(C)C=Nc1cc(C)c(OCC(COc2cc(C(F)(F)F)cc(C(F)(F)F)c2)=NOC)cc1C [I-119]
infection (rust fungus development on the leaves) [1]: at most 15%

CCN(C)C=Nc1cc(C)c(OCC(COc2cccc(C(F)(F)F)c2Cl)=NOC)cc1C [I-124]
infection (rust fungus development on the leaves) [1]: at most 15% | infection of the leaf area [2]: at most 15%

CCN(C)C=Nc1cc(C)c(OCC(COc2c(F)c(F)c(C(F)(F)F)c(F)c2F)=NOC)cc1C [I-139]
infection (rust fungus development on the leaves) [1]: at most 15% | infection of the leaf area [2]: at most 15%

CCN(C)C=Nc1cc(C)c(OCC(COc2ccnn2C)=NOC)cc1C [I-2]
infection (rust fungus development on the leaves) [1]: at most 15% | infection of the leaf area [2]: at most 15% | infection of the entire leaf area [7]: at most 15% | infection (rust fungus development on the leaves) [5]: at most 15%

CCN(C)C=Nc1cc(C)c(OCC(COc2c(Cl)c(Cl)c(Cl)c3c2OC(C)(C)C3)=NOC)cc1C [I-133]
infection (rust fungus development on the leaves) [1]: at most 15% | infection of the leaf area [2]: at most 15%

CCN(C)C=Nc1cc(C)c(OCC(Cn2cc(C)cn2)=NOC)cc1C [I-31]
infection (rust fungus development on the leaves) [1]: at most 15% | infection of the leaf area [2]: at most 15%

CCN(C)C=Nc1cc(C)c(OCC(COc2cccc(C(F)(F)F)c2F)=NOC)cc1C [I-123]
infection (rust fungus development on the leaves) [1]: at most 15% | infection of the leaf area [2]: at most 15%

CCN(C)C=Nc1cc(C)c(OCC(COc2cc(F)cc(C(F)(F)F)c2)=NOC)cc1C [I-122]
infection (rust fungus development on the leaves) [1]: at most 15% | infection of the leaf area [2]: at most 15%

CCN(C)C=Nc1cc(C)c(OCC(COc2ccc(F)c(Cl)c2)=NOC)cc1C [I-26]
relative growth of the pathogen [6]: at most 10% | relative growth of the pathogen [3]: at most 10% | relative growth of the pathogen [4]: at most 10%

CCN(C)C=Nc1cc(C)c(OCC(COc2ccc(Oc3ncc(C(F)(F)F)cc3Cl)c(Cl)c2)=NOC)cc1C [I-134]
infection (rust fungus development on the leaves) [1]: at most 15% | infection of the leaf area [2]: at most 15%

CCN(C)C=Nc1cc(C)c(OCC(COc2c(Cl)ccc(Cl)c2Cl)=NOC)cc1C [I-129]
infection (rust fungus development on the leaves) [1]: at most 15% | infection of the leaf area [2]: at most 15%

C=CCON=C(C)COc1cc(C)c(N=CN(C)CC)cc1C [I-64]
relative growth of the pathogen [3]: at most 10% | infection (rust fungus development on the leaves) [1]: at most 15% | infection of the leaf area [2]: at most 15%

CCN(C)C=Nc1cc(C)c(OCC(COc2ccc(F)c(C(F)(F)F)c2)=NOC)cc1C [I-118]
infection (rust fungus development on the leaves) [1]: at most 15% | infection of the leaf area [2]: at most 15%

CCc1cc(OCC(COc2cc(C)c(N=CN(C)CC)cc2C)=NOC)ccc1Cl [I-145]
infection (rust fungus development on the leaves) [1]: at most 15% | infection of the leaf area [2]: at most 15%

CCN(C)C=Nc1cc(C)c(OCC(COc2cc(Br)c(F)cc2Cl)=NOC)cc1C [I-151]
infection (rust fungus development on the leaves) [1]: at most 15% | infection of the leaf area [2]: at most 15% | infection (fungal infection on the leaves) [8]: at most 15% | infection of the entire leaf area [7]: at most 15% | infection (rust fungus development on the leaves) [5]: at most 15%

CCN(C)C=Nc1cc(C)c(OCC(COC)=NOC)cc1C [I-5]
relative growth of the pathogen [4]: at most 10% | infection (rust fungus development on the leaves) [1]: at most 15% | infection of the leaf area [2]: at most 15%

CCN(C)C=Nc1cc(C)c(OCC(COc2ccc(NC(=O)C3(C)CCCCC3)c(Cl)c2Cl)=NOC)cc1C [I-158]
infection (rust fungus development on the leaves) [1]: at most 15% | infection of the leaf area [2]: at most 15%

CCN(C)C=Nc1cc(C)c(OCC(Cn2cccn2)=NOC)cc1C [I-35]
infection (rust fungus development on the leaves) [1]: at most 15% | infection of the leaf area [2]: at most 15%

CCN(C)C=Nc1cc(C)c(OCC(COc2cc(Cl)cc(Cl)c2)=NOC)cc1C [I-25]
relative growth of the pathogen [6]: at most 10% | relative growth of the pathogen [3]: at most 10% | relative growth of the pathogen [4]: at most 10%

CCN(C)C=Nc1cc(C)c(OCC(Cn2cc(C)c(-c3ccc(Cl)cc3)n2)=NOC)cc1C [I-43]
relative growth of the pathogen [6]: at most 10% | relative growth of the pathogen [4]: at most 10% | infection (rust fungus development on the leaves) [1]: at most 15% | infection of the leaf area [2]: at most 15%

CCN(C)C=Nc1cc(C)c(OCC(COc2ccc(OC)c(OC)c2)=NOC)cc1C [I-17]
infection (rust fungus development on the leaves) [1]: at most 15% | infection of the leaf area [2]: at most 15%

CCN(C)C=Nc1cc(C)c(OCC(N)=NOC)cc1C [I-157]
infection (rust fungus development on the leaves) [1]: at most 15% | infection of the leaf area [2]: at most 15%

CCN(C)C=Nc1cc(C)c(OCC(COc2cc(C)c(Cl)c(C)c2)=NOC)cc1C [I-143]
infection (rust fungus development on the leaves) [1]: at most 15% | infection of the leaf area [2]: at most 15%

CCN(C)C=Nc1cc(C)c(OCC(COc2ccc(Cl)c(C(F)(F)F)c2)=NOC)cc1C [I-117]
infection (rust fungus development on the leaves) [1]: at most 15% | infection of the leaf area [2]: at most 15%

CCN(C)C=Nc1cc(C)c(OCC(COc2cc(Cl)cc3cccnc23)=NOC)cc1C [I-33]
infection (rust fungus development on the leaves) [1]: at most 15%

CCN(C)C=Nc1cc(C)c(OCC(COc2ccc(Cl)c(Cl)c2Cl)=NOC)cc1C [I-132]
infection (rust fungus development on the leaves) [1]: at most 15% | infection of the leaf area [2]: at most 15%

CCN(C)C=Nc1cc(C)c(OCC(COCc2ccc(Cl)cc2)=NOC)cc1C [I-53]
relative growth of the pathogen [6]: at most 10% | relative growth of the pathogen [3]: at most 10% | infection (rust fungus development on the leaves) [1]: at most 15% | infection of the leaf area [2]: at most 15%

CCN(C)C=Nc1cc(C)c(OCC(Cn2cc(-c3ccc(C)cc3)cn2)=NOC)cc1C [I-42]
infection (rust fungus development on the leaves) [1]: at most 15% | infection of the leaf area [2]: at most 15%

CCN(C)C=Nc1cc(C)c(OCC(COc2cc(C(F)(F)F)ccc2Cl)=NOC)cc1C [I-120]
infection (rust fungus development on the leaves) [1]: at most 15% | infection of the leaf area [2]: at most 15%

CCN(C)C=Nc1cc(C)c(OCC(COc2c(F)cccc2Cl)=NOC)cc1C [I-15]
relative growth of the pathogen [6]: at most 10% | relative growth of the pathogen [3]: at most 10% | relative growth of the pathogen [4]: at most 10% | infection (rust fungus development on the leaves) [1]: at most 15% | infection of the leaf area [2]: at most 15%

CCN(C)C=Nc1cc(C)c(OCC(COc2cccc(Cl)c2Cl)=NOC)cc1C [I-24]
relative growth of the pathogen [6]: at most 10% | relative growth of the pathogen [3]: at most 10% | relative growth of the pathogen [4]: at most 10% | infection (rust fungus development on the leaves) [1]: at most 15% | infection of the leaf area [2]: at most 15%

CCN(C)C=Nc1cc(C)c(OCC(=NOC)c2ccc(C(F)(F)F)cc2)cc1C [I-105]
infection (rust fungus development on the leaves) [1]: at most 15% | infection of the leaf area [2]: at most 15%

CCN(C)C=Nc1cc(C)c(OCC(COc2cccc(OC(F)F)c2)=NOC)cc1C [I-21]
infection (rust fungus development on the leaves) [1]: at most 15% | infection of the leaf area [2]: at most 15%

CCN(C)C=Nc1cc(C)c(OCC(Cn2cc(C)c(C)n2)=NOC)cc1C [I-44]
infection (rust fungus development on the leaves) [1]: at most 15% | infection of the leaf area [2]: at most 15%
